Some of the results follow.
The targets below were run with c1cn2cc(-c3ccc4cn[nH]c4c3)nc(Nc3ccc(N4CCOCC4)cc3)c2n1 [entospletinib] (assay: log2 fold change, soluble protein after heating vs DMSO (PISA); higher = thermal stabilisation; K562 cells, 10 uM, 30 min; active = over 0.2 and 3.5 SD of the protein, either way, in both replicates (recomputed)).
Outline: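 K562 cells at 2×10^6 cells/mL were treated for 30 min with 10 μM compound, and aliquots were heated for 3 min over 48°C-58°C before pooling. Extraction used PBS with 0.5% NP-40 at 4°C, and soluble protein was the supernatant after 21,000xg for 90 min, measured by TMTpro 16plex LC-MS/MS with channel sums equalised. Thermal stability values, relative to control samples and from duplicates, are log2 fold changes.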

The chains behind the UniProt entries cited, without tags or fusion partners. Where a name states a change or a piece, a line headed by the entry shows the natural chain unless it says otherwise.
UniProt P09038, whole entry, looked up: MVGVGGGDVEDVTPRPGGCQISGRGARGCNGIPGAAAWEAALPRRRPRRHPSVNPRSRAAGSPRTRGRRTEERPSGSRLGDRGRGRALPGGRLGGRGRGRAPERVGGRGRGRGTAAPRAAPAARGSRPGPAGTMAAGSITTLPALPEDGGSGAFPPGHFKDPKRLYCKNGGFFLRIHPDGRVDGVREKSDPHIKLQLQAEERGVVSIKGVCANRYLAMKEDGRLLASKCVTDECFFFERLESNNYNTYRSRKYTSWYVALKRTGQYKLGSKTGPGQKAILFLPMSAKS
UniProt Q8N6M3: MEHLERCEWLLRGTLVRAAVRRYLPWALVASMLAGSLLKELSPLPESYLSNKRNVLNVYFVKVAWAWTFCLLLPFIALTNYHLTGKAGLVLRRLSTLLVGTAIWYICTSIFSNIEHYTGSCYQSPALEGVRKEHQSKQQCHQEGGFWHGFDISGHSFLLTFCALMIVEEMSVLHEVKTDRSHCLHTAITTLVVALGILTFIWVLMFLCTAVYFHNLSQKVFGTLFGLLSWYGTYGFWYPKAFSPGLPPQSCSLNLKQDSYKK
UniProt Q9NWM8: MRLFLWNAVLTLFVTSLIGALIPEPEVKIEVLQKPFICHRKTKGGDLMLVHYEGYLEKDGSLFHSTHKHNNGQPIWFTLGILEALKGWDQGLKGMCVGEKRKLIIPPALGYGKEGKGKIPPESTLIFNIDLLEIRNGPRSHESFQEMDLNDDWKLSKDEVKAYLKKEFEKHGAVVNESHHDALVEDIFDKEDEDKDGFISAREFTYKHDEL
UniProt Q8NFF5: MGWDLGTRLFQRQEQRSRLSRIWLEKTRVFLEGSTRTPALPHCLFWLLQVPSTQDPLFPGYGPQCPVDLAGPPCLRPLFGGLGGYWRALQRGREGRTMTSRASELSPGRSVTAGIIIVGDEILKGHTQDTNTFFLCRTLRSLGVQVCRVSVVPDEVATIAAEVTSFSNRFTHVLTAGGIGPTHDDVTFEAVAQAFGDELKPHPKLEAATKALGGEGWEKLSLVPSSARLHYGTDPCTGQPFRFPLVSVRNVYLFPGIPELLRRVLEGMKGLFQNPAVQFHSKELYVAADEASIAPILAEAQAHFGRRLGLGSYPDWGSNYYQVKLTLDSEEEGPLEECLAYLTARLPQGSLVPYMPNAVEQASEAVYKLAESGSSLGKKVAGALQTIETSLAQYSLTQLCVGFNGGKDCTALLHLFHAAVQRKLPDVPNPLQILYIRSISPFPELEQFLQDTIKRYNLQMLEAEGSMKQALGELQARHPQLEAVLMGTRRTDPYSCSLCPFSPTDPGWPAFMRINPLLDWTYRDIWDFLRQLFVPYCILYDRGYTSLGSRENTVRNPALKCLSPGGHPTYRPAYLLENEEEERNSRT
UniProt P10109: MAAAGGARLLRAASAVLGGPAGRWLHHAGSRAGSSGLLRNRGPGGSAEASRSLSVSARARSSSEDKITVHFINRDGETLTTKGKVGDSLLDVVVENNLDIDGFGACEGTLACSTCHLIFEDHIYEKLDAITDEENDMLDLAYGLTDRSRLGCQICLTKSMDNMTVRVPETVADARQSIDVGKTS
UniProt Q6V0I7: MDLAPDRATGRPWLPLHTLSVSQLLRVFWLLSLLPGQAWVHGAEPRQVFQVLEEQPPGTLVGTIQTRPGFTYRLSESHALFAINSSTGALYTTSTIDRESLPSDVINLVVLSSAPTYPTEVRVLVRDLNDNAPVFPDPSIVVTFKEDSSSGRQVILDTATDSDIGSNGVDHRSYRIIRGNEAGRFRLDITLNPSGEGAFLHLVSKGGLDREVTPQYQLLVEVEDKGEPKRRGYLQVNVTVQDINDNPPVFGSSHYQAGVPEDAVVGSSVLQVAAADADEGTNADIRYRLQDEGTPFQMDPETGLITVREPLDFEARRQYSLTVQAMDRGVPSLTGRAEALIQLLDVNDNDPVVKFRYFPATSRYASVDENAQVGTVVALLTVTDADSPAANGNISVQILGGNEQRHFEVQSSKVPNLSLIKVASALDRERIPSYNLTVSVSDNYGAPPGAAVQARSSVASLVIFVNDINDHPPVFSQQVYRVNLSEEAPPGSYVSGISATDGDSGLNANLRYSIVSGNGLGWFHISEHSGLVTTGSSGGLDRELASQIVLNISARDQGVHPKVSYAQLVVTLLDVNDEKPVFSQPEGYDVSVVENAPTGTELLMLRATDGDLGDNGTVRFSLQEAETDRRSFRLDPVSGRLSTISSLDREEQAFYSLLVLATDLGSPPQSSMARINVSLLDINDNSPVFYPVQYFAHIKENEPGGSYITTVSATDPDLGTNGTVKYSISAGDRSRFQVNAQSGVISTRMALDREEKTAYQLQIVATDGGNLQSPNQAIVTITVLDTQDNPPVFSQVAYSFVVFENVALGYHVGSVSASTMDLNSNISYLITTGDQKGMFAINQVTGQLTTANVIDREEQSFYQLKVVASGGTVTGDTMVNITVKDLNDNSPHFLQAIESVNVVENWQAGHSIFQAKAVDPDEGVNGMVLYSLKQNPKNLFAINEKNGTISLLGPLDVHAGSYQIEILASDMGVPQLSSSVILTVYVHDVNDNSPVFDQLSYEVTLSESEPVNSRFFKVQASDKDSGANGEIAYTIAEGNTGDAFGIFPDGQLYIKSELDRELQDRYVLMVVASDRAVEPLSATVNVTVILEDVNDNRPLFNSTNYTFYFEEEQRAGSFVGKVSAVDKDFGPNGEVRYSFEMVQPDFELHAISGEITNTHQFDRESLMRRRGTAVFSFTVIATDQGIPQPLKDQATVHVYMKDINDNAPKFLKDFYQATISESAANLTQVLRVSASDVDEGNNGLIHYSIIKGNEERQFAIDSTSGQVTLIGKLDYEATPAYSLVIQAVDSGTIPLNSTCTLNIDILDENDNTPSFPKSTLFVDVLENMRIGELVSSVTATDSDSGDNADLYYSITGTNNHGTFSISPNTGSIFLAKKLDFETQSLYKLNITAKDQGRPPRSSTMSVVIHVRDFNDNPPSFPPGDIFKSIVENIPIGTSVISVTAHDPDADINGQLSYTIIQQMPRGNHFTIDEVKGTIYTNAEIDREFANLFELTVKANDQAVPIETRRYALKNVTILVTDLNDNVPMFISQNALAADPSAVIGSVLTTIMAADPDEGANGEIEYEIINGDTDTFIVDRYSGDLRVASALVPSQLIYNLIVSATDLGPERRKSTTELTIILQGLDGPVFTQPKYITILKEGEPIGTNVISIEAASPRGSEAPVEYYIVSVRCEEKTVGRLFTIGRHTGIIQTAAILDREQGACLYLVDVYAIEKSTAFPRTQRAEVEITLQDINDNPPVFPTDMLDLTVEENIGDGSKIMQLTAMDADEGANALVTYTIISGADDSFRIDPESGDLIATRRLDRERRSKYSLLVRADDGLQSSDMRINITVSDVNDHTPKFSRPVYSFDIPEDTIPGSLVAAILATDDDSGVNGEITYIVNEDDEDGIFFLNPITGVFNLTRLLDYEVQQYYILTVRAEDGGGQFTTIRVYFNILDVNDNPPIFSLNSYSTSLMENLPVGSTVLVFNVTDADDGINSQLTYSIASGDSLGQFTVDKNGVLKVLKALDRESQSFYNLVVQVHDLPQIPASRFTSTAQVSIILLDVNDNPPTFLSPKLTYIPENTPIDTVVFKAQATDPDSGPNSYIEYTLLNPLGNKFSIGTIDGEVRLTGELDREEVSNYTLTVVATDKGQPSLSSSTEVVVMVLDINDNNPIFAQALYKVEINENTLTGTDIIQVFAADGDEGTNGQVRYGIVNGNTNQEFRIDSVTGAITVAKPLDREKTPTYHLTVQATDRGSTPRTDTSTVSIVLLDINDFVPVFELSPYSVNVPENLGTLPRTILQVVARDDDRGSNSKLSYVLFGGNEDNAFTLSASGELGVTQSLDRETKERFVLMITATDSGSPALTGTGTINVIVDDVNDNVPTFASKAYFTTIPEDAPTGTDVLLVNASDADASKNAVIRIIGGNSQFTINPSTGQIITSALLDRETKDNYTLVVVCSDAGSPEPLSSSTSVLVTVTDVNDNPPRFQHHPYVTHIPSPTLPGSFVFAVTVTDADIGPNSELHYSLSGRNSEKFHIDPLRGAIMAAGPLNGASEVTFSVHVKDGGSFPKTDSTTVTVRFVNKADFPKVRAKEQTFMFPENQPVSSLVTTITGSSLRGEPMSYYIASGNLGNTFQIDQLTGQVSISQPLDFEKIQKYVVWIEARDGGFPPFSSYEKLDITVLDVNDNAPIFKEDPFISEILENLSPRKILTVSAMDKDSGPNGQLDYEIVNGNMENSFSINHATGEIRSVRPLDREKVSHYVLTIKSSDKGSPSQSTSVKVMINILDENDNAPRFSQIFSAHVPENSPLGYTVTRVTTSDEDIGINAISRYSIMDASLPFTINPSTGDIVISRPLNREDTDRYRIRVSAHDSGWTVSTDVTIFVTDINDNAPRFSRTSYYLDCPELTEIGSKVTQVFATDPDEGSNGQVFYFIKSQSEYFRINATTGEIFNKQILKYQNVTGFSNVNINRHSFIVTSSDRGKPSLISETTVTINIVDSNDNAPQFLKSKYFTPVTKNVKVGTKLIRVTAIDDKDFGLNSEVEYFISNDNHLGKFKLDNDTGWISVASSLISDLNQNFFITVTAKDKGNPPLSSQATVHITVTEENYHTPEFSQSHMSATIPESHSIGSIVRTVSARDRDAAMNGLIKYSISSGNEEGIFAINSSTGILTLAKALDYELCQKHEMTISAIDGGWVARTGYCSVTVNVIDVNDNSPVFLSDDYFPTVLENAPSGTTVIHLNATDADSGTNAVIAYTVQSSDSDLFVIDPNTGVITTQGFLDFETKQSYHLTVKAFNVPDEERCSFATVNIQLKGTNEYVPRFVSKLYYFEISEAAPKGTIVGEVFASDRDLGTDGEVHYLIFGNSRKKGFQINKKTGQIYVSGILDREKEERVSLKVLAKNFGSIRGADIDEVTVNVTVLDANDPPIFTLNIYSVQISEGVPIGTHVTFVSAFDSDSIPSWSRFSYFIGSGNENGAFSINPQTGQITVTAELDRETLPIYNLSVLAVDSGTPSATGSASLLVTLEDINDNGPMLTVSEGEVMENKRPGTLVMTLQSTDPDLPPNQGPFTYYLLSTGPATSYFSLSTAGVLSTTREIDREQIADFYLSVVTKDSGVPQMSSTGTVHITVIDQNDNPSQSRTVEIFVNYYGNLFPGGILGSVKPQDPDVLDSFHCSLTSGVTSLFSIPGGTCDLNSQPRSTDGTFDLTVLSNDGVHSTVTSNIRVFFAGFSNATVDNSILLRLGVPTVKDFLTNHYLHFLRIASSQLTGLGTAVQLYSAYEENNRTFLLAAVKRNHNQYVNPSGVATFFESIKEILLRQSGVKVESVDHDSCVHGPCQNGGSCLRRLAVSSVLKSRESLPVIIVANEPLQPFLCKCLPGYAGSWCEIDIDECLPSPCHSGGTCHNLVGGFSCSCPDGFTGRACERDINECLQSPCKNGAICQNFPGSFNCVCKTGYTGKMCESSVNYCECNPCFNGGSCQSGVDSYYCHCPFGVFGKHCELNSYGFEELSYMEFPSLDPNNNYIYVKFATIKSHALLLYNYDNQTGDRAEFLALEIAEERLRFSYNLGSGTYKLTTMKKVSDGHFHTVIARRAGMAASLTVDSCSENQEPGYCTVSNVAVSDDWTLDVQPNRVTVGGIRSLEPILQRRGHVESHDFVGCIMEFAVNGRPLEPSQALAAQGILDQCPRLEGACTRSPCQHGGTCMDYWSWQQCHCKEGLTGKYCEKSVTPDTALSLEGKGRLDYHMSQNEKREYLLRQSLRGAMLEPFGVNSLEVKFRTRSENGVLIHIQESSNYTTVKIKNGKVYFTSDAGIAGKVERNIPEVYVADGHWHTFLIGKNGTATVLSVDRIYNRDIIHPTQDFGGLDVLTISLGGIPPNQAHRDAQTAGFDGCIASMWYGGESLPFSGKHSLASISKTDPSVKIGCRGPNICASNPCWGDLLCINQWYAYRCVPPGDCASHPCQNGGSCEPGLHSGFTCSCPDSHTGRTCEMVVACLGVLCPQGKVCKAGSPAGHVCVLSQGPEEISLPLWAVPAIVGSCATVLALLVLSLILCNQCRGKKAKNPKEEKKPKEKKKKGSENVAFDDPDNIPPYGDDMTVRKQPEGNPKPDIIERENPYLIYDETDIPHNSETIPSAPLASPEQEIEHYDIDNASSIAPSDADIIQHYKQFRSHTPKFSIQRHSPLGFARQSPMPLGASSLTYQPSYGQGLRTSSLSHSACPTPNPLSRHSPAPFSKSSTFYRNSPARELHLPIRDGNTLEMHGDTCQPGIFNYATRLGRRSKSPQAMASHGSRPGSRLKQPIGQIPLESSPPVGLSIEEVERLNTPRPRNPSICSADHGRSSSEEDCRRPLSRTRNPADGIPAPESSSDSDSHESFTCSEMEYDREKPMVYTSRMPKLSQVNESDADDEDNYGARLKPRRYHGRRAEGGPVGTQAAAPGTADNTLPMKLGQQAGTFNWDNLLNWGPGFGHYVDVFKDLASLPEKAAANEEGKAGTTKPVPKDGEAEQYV

log2 fold change, inactive:
FH (UniProt P07954) 0.078
FAM78A (UniProt Q5JUQ0) -0.083
FASN (UniProt P49327) -0.016
FKRP (UniProt Q9H9S5) -0.318
FBXW9 (UniProt Q5XUX1) -0.131
FLYWCH2 (UniProt Q96CP2) -0.085
FAM53C (UniProt Q9NYF3) 0.001
FARSB (UniProt Q9NSD9) -0.01
FGFR1OP (UniProt O95684) 0.016
FAM32A (UniProt Q9Y421) 0.051
FGF2 (UniProt P09038) -0.002
FCHSD1 (UniProt Q86WN1) -0.126
FITM2 (UniProt Q8N6M3) -0.012
FKBP14 (UniProt Q9NWM8) -0.045
FAM3C (UniProt Q92520) -0.03
FLNC (UniProt Q14315) 0.015
FAR1 (UniProt Q8WVX9) -0.051
FN3KRP (UniProt Q9HA64) -0.017
FKBP1A (UniProt P62942) 0.072
FLAD1 (UniProt Q8NFF5) -0.017
FAM76A isoform 3 (UniProt Q8TAV0) 0.09
FAM210B (UniProt Q96KR6) -0.022
FDX1 (UniProt P10109) -0.037
FANCB (UniProt Q8NB91) 0.017
FKBP15 (UniProt Q5T1M5) 0.007
FANCA (UniProt O15360) 0.135
FAT4 (UniProt Q6V0I7) -0.077

5 consecutive records already listed, quoted:
log2 fold change, inactive:
FLYWCH2 (UniProt Q96CP2) -0.085
FAM53C (UniProt Q9NYF3) 0.001
FARSB (UniProt Q9NSD9) -0.01
FGFR1OP (UniProt O95684) 0.016
FAM32A (UniProt Q9Y421) 0.051
